Test results published in US20200048332A1 (BIOVERATIV USA, published 2020).
Substitutions are numbered along the chain they refer to. Results are given in words; binding and its absence hold for the method and conditions named. Some results given as binding are weak or reduced against the parent protein; the word gives no strength. For part of these data: Tags and fused reporters may be left off the sequences shown.

What was measured:
activated C1s [1] = target: T1, activated C1s (human, UniProt P09871 16-688); test: direct binding of antibody to activated C1s (column 'Direct Binding Ab to aC1s', EC50 (M)); assay format not named
T1 sequence: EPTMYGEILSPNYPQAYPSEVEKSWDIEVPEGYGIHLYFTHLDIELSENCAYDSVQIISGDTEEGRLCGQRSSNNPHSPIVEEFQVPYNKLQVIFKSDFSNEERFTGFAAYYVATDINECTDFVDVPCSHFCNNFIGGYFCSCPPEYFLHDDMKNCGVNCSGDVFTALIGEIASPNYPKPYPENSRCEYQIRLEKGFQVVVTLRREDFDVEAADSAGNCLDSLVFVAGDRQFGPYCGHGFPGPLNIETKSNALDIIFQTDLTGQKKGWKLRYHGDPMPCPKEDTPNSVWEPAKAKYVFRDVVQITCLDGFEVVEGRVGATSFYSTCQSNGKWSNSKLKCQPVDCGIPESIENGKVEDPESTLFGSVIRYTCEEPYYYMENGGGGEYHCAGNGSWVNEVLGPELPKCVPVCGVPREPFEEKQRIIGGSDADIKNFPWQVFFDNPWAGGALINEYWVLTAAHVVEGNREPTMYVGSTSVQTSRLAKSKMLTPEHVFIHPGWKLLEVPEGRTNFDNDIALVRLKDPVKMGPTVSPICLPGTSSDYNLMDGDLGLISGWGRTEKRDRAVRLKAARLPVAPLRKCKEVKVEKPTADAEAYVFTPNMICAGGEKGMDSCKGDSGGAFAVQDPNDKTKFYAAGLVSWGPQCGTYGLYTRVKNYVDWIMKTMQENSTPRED

activated C1s [2] = target: T1, activated C1s; test: direct binding to activated C1s and competition binding with 50 pM Biot-005
activated C1s [3] = target: T1, activated C1s; test: ELISA, plate pre-coated with activated C1s, detected with HRP-conjugated anti-human IgG (capture step of the PK assay, with a standard curve of VH3/VK2-Fc-sub4)

B1: murine anti-activated C1s antibody (antibody, V domains shown)
VH: EVQLQQSGAELVRPGASVKLSCTASGFNIKDDYIHWVKQRPEQGLEWIGRIDPADGHTKYAPKFQVKATITADTSSNTAYLQLSSLTSEDTAVYYCARYGYGREVFDYWGQGTTLTVSS
VL: DIVLTQSPASLAVSLGQRATISCKASQSVDYDGDSYMNWYQQKTGQPPKILIYDASNLESGIPARFSGSGSGTDFTLNIHPVEEEDAAIYYCQQSNEDPWTFGGGTKLEIK
**Q.** B1 was tested. Which binding (activated C1s [1]) did it give?
**A.** binds

B2: humanized VH2/Vk2 (antibody, V domains shown)
VH: B1 VH with Q5V, L11V, V12K, R13K, R40A, E42G, S76T, Q82E, T87R, L115V
VL: B1 VL with A9D, Q17E, T44P, N78T, H80S, P81S, V82L, E84P, A87F, L108V
**Q.** With B2 as the binder, how does the binding (activated C1s [2]) read?
**A.** binds

B3: VH3/VK2-Fc-sub4 (antibody, human IgG4 S228P, kappa, V domains shown)
VH: QVQLVQSGAEVKKPGASVKLSCTASGFNIKDDYIHWVKQAPGQGLEWIGRIDPADGHTKYAPKFQVKVTITADTSTSTAYLELSSLRSEDTAVYYCARYGYGREVFDYWGQGTTVTVSS
VL: DIVLTQSPDSLAVSLGERATISCKASQSVDYDGDSYMNWYQQKPGQPPKILIYDASNLESGIPARFSGSGSGTDFTLTISSLEPEDFAIYYCQQSNEDPWTFGGGTKVEIKR
notes: Humanized IgG4; also called TNT020; humanized anti-aC1s variant VH3/VK2-Fc-sub4
**Q.** With B3 as the binder, how does the binding (activated C1s [3]) read?
**A.** binds
